From doi:10.1101/2021.07.29.454387 (bioRxiv, 2021)
These are yes or no findings as the source states them, for the method shown. In cells and extracts the contact can be indirect. Here binding means that the protein was enriched with, or labelled near, the bait; the list need not be complete.

T1: biotinylated synthetic peptide derived from the C-terminus of SNX17 (457-470)
T1 sequence (peptide, biotin (position not stated)): HGNFAFEGIGDEDL


target: T1, biotinylated synthetic peptide derived from the C-terminus of SNX17 (457-470); experiment: affinity purification with mass spectrometry

Molecule | binding
endogenous PDLIM4 (protein, UniProt P50479 1-330) MPHSVTLRGPSPWGFRLVGGRDFSAPLTISRVHAGSKAALAALCPGDLIQAINGESTELMTHLEAQNRIKGCHDHLTLSVSRPEGRSWPSAPDDSKAQAHRIHIDPEIQDGSPTTSRRPSGTGTGPEDGRPSLGSPYGQPPRFPVPHNGSSEATLPAQMSTLHVSPPPSADPARGLPRSRDCRVDLGSEVYRMLREPAEPVAAEPKQSGSFRYLQGMLEAGEGGDWPGPGGPRNLKPTASKLGAPLSGLQGLPECTRCGHGIVGTIVKARDKLYHPECFMCSDCGLNLKQRGYFFLDERLYCESHAKARVKPPEGYDVVAVYPNAKVELV | binds

target: T1, biotinylated synthetic peptide derived from the C-terminus of SNX17 (457-470); experiment: affinity purification with mass spectrometry; remark: another data set of the same source

Molecule | binding
endogenous COMMD8 (from UniProt Q9NX08 1-183) | binds
endogenous CCDC93 (from UniProt Q567U6 1-631) | binds
endogenous COMMD7 (from UniProt Q86VX2 1-200) | binds
endogenous PDLIM1 (from UniProt O00151 1-329) | binds
endogenous COMMD9 (from UniProt Q9P000 1-198) | binds
endogenous CCDC22 (from UniProt O60826 1-627) | binds
endogenous COMMD1 (from UniProt Q8N668 1-190) | binds
endogenous COMMD5 (from UniProt Q9GZQ3 1-224) | binds
endogenous PDLIM7 (from UniProt Q9NR12 1-457) | binds
endogenous COMMD10 (from UniProt Q9Y6G5 1-202) | binds
endogenous COMMD4 (from UniProt Q9H0A8 1-199) | binds
